According to patent US5767084A, “Method of treatment for cystic fibrosis and peptides for same” (The Curators of the University of Missouri, priority 1995, dated 1998):
Not every detail of the peptide structures is certain; ends, links or a residue may be inferred. Where a SMILES comes first, the peptide text is derived from it.

Tested on: recombinant human ΔF508 CFTR mutant protein
Test: Immunoblot analysis of ΔF508 CFTR immunoprecipitated from peptide-treated cultured cells (Band A immature, Band C mature)
Type: cell-based
Details: murine fibroblasts (3T3) expressing ΔF508 CFTR; treated three days with 10-50 μg/ml peptide; immunoblot vs untreated cells

Compound: CC[C@H](C)[C@H](N)C(=O)N[C@H](C(=O)NCC(=O)N[C@H](C(=O)O)C(C)C)[C@@H](C)CC [IIGV, Ile-Ile-Gly-Val] (H-IIGV-OH)
- relative amount of properly processed (mature, glycosylated) ΔF508 CFTR ("Band C"): increased the relative amounts
- relative amount of unprocessed (immature, unglycosylated) ΔF508 CFTR ("Band A"): increased the relative amounts

Compound: CC[C@H](C)[C@H](NC(C)=O)C(=O)N[C@H](C(=O)NCC(=O)N[C@H](C(=O)O)C(C)C)[C@@H](C)CC [N-acetyl-IIGV] (Ac-IIGV-OH)
- relative amount of properly processed (mature, glycosylated) ΔF508 CFTR ("Band C"): less effect
- relative amount of unprocessed (immature, unglycosylated) ΔF508 CFTR ("Band A"): less effect
